{"source": "paper doi:10.1101/215590", "key": {"[1]": {"molecular_target": "T1, Arabidopsis AGO1, split-YFP fusion for BiFC (Arabidopsis thaliana) (UniProt O04379)", "T1 sequence": "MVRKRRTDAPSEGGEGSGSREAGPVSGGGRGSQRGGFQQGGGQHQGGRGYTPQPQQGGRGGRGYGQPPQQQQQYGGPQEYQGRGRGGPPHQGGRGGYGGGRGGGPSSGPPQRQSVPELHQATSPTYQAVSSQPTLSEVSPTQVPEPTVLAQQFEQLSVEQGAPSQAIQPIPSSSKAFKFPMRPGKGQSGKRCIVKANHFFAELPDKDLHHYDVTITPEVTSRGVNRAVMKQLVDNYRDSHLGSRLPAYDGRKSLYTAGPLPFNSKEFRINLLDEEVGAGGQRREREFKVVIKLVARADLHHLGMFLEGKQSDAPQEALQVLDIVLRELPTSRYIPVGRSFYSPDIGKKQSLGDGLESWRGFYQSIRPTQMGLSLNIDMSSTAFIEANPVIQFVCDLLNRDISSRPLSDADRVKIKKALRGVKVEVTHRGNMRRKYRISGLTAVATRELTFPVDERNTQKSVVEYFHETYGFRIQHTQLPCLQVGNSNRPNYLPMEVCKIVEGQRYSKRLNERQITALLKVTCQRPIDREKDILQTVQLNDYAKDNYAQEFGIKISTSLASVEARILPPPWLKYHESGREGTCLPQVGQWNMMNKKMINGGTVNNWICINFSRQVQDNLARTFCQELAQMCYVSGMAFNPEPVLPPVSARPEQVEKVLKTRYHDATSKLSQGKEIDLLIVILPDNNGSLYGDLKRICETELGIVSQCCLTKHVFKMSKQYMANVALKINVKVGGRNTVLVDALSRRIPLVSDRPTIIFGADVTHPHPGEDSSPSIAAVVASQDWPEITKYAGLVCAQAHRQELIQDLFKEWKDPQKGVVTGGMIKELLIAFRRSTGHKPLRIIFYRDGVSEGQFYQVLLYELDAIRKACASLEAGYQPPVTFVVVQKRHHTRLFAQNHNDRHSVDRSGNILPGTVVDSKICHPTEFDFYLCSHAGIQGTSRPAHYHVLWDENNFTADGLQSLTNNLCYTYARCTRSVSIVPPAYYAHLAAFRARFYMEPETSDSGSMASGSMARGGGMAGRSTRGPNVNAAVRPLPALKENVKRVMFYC", "experiment": "split reporter"}, "[2]": {"molecular_target": "T2, CFP-AGO1 (Arabidopsis thaliana) (UniProt O04379)", "T2 sequence": "T1 sequence", "experiment": "FRET or BRET"}}, "note": "Results are given in words; binding and its absence hold for the method and conditions named. Binding seen in cells or lysates may run through a third protein. Binding calls can cover weak binding; strength is not graded here. Sequences can lack the tags named with a protein.", "data": [{"substance": "HopT1-1m3 (triple GW>GF mutant of HopT1-1), split-YFP fusion for BiFC (Pseudomonas syringae pv. tomato DC3000)", "values": [{"measurement": "binding", "setting": "[1]", "result": "no binding"}]}, {"substance": "HopT1-1m3-YFP (Pseudomonas syringae pv. tomato DC3000)", "values": [{"measurement": "binding", "setting": "[2]", "result": "no binding"}]}, {"substance": "HopT1-1 (Hrp outer protein T1-1), split-YFP fusion for BiFC (from UniProt Q88BP7)", "values": [{"measurement": "binding", "setting": "[1]", "result": "binds"}]}, {"substance": "HopT1-1-YFP (Pseudomonas syringae pv. tomato DC3000)", "values": [{"measurement": "binding", "setting": "[2]", "result": "binds"}]}]}
